Our source for the binding values is PMC5119558, “Applying bimolecular fluorescence complementation to screen and purify aquaporin protein:protein complexes” (Protein Science : A Publication of the Protein Society, 2016).

No constants are given. Whether binding was seen depends on the method and setting. In cells and extracts the contact can be indirect. Some results given as binding are weak or reduced against the parent protein; the word gives no strength. Where a sequence is shown, tags or fusion partners need not be part of it.

Test [1] concerns the target T1, YFPN‐AQP0 (6x‐His, N‐terminal part of YFP fused to the N‐terminus of human aquaporin 0) (human) (UniProt P30301).
T1 sequence: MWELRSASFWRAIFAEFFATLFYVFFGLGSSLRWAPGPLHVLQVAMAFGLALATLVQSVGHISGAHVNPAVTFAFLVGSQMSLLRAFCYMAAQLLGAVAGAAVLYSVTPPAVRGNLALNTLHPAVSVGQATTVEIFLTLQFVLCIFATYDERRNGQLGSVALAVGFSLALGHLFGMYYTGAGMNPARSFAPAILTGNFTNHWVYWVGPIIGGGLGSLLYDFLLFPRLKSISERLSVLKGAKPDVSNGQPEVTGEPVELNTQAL
Kind of test: split reporter; BiFC with split YFP (SYFP2 1-154 and 155-239) in whole S. cerevisiae cells co-expressing both fusions; grown in selective SC medium at 30°C for 22 h; wide-field fluorescence microscopy; fraction of fluorescent cells (minimum 300 cells a sample, 6 to 16 transformations).

Test [2] addresses T1, YFPN‐AQP0 (6x‐His, N‐terminal part of YFP fused to the N‐terminus of human aquaporin 0) (human). Kind of test: pull-down; YFPN-AQP0 + YFPC-AQP2 co-expressed in S. cerevisiae; membranes solubilised in DDM; HisTrap HP (Ni-NTA) by the His tag on the AQP0 part; 20 mM Hepes pH 7.8, 300 mM NaCl, 10% glycerol, 5 mM CaCl2, 0.02% DDM; imidazole gradient; eluate on SDS-PAGE, immunoblot with anti-his and anti-AQP2; the two chains are linked by the reassembled YFP. On the technique in general: Immunoblotting shows a protein as a band on a membrane.

Test [3] addresses T2, YFPC‐AQP0 (6x‐His, C‐terminal part of YFP fused to the N‐terminus of human aquaporin 0) (human) (UniProt P30301).
T2 sequence: T1 sequence
Kind of test: split reporter; BiFC with split YFP (SYFP2 1-154 and 155-239) in whole S. cerevisiae cells co-expressing both fusions; grown in selective SC medium at 30°C for 22 h; wide-field fluorescence microscopy; fraction of fluorescent cells (minimum 300 cells a sample, 6 to 16 transformations).

B1: YFPC‐AQP0 (6x‐His, C‐terminal part of YFP fused to the N‐terminus of human aquaporin 0) (protein, UniProt P30301 1-263)
chain: T1 sequence
In the case of B1, in test [1], the binding entry is “binds”.

B2: YFPC‐AQP2 (C‐terminal part of YFP fused to the N‐terminus of human aquaporin 2) (protein, UniProt P41181 1-271)
chain: MWELRSIAFSRAVFAEFLATLLFVFFGLGSALNWPQALPSVLQIAMAFGLGIGTLVQALGHISGAHINPAVTVACLVGCHVSVLRAAFYVAAQLLGAVAGAALLHEITPADIRGDLAVNALSNSTTAGQAVTVELFLTLQLVLCIFASTDERRGENPGTPALSIGFSVALGHLLGIHYTGCSMNPARSLAPAVVTGKFDDHWVFWIGPLVGAILGSLLYNYVLFPPAKSLSERLAVLKGLEPDTDWEEREVRRRQSVELHSPQSLPRGTKA
For the molecule B2, the values for the binding entry in test [1] and in test [2] were “binds weakly” and “binds”, respectively.

B3: YFPN‐AQP2 (N‐terminal part of YFP fused to the N‐terminus of human aquaporin 2) (protein, UniProt P41181 1-271)
chain: B2 chain
Take B3: the binding entry in test [3] is listed as “binds weakly”.
